# According to PubChem BioAssay AID328 (DTP/NCI, 2004):
# The list does not hold the whole screen: it gathers tests that were run many times, whatever their T/C, doses with no T/C, and many T/C values between a quarter and a half above the control. Other doses and runs of a compound stand elsewhere. T/C gives the treated animals as a percentage of the vehicle group. Some entries give survivors of the animals treated and no T/C: the source files T/C as zero there, which appears to mark a toxic dose or a test without result, not a measured value. Some survivor counts are full or nearly so, which does not show that the dose was tolerated: survival well below the control is almost never listed, so the zero probably covers shortened survival too. Counts of survivors are from the toxicity check (mostly the fifth day) where no day follows; animals may have died later. Schedules are NCI's codes, taken here to give the interval after Q, in days (D) or hours (H), and the number of doses after X. Some entries were tested several times; the results are listed from low to high. Where survival is the endpoint, this PubChem deposit counts one and a half times the control or more as active, and values a quarter to a half above the control carry no call in these data; other NCI protocols may use other cut-offs. Some T/C values are followed by the survivors on the day toxicity was checked, most often the fifth; without a count, all were alive then.
# System: BDF1 mice, P388 leukemia ip, median survival T/C
# Experiment: NCI In Vivo Anticancer Drug Screen. Data for tumor model P388 Leukemia (intraperitoneal) in B6D2F1 (BDF1) mice
# Settings: T/C endpoint: median survival time, higher T/C = longer survival
# Experimental: The antitumor activity of compounds was measured in mice bearing transplantable tumors. Survival or tumor size were measured and the results are expressed as the measurement made in the treated group (T) divided by the measurement made in the vehicle treated control group (C). The tumor model used in this assay is P388 Leukemia (intraperitoneal) in B6D2F1 (BDF1) mice
# [1] = dose: 100.0 mg/kg/injection, schedule: Q01DX009 (ip), vehicle: saline with Tween-80
# [2] = dose: 200.0 mg/kg/injection, schedule: Q01DX009 (ip), vehicle: saline with Tween-80
# [3] = dose: 200.0 mg/kg/injection, schedule: Q01DX009 (ip), vehicle: Klucel (hydroxypropylcellulose) (HPC)
# [4] = dose: 400.0 mg/kg/injection, schedule: Q04DX003 (ip), vehicle: saline
# [5] = dose: 400.0 mg/kg/injection, schedule: Q04DX003 (ip), vehicle: saline with Tween-80
# [6] = dose: 100.0 mg/kg/injection, schedule: Q04DX003 (ip), vehicle: saline with Tween-80
# [7] = dose: 400.0 mg/kg/injection, schedule: Q01DX009 (ip), vehicle: saline with Tween-80
# [8] = dose: 400.0 mg/kg/injection, schedule: Q01DX009 (ip), vehicle: saline
# [9] = dose: 200.0 mg/kg/injection, schedule: Q01DX009 (ip), vehicle: saline sonified
smiles,measurement,setting,value
CC1C(=O)OC2CC[N+]3([O-])CC=C(COC(=O)C(C)(O)C1(C)O)C23 (stereo not given),T/C,"dose: 200.0 mg/kg/injection, schedule: Q01DX010 (ip), vehicle: saline",125 % of control
CN=S(=O)(OCCCCOS(=O)(=NC)c1ccccc1)c1ccccc1 (stereo not given),T/C,"dose: 25.0 mg/kg/injection, schedule: Q01DX009 (ip), vehicle: saline with Tween-80",131 % of control
same,T/C,"dose: 50.0 mg/kg/injection, schedule: Q01DX009 (ip), vehicle: saline with Tween-80, evaluated on day 30",146 % of control
same,T/C,"dose: 50.0 mg/kg/injection, schedule: Q01DX009 (ip), vehicle: saline with Tween-80, evaluated on day 35",138 % of control
same,survivor count,[1],5 of 6 and 6 of 6
same,survivor count,[2],2 of 6
CCCCSC#N,survivor count,"dose: 25.0 mg/kg/injection, schedule: Q01DX001 (ip), vehicle: saline",2 of 6
C1CCN[N-]C1.C1CCN[N-]C1.[Cl][Pt+2]([Cl])([Cl])[Cl],survivor count,"dose: 3.12 mg/kg/injection, schedule: Q01DX009 (ip), vehicle: water",6 of 6
same,survivor count,"dose: 12.5 mg/kg/injection, schedule: Q01DX009 (ip), vehicle: water",6 of 6
same,survivor count,"dose: 25.0 mg/kg/injection, schedule: Q01DX009 (ip), vehicle: water",6 of 6
same,survivor count,"dose: 50.0 mg/kg/injection, schedule: Q01DX009 (ip), vehicle: water",2 of 6
same,survivor count,"dose: 100.0 mg/kg/injection, schedule: Q01DX009 (ip), vehicle: water",0 of 6
same,survivor count,"dose: 100.0 mg/kg/injection, schedule: Q04DX003 (ip), vehicle: water",4 of 6
same,survivor count,"dose: 200.0 mg/kg/injection, schedule: Q04DX003 (ip), vehicle: water",1 of 6
CCCCCCCCCCCCCCCCCCCC,survivor count,"dose: 25.0 mg/kg/injection, schedule: Q01DX009 (ip), vehicle: other",5 of 6
O=C1NC(=O)C(=Cc2cc3c(cc2Br)OCO3)C(=O)N1,T/C,[2],132 % of control
Cc1cc(C)c(S(=O)(=O)OCCCl)c(C)c1,survivor count,"dose: 200.0 mg/kg/injection, schedule: Q01DX005 (ip), vehicle: Klucel (hydroxypropylcellulose) (HPC)",0 of 6
CC1CNC(=O)O1 (stereo not given),survivor count,"dose: 50.0 mg/kg/injection, schedule: Q04DX003 (ip), vehicle: saline",6 of 6
Cc1cc(C)c(C(=O)C=O)c(C)c1,survivor count,[3],4 of 5
CN(C)C(CCc1ccccc1)C(=O)O (stereo not given),survivor count,[4],6 of 6
CCCCCCCCCCCCCCCCN(C)CCO,survivor count,"dose: 100.0 mg/kg/injection, schedule: Q01DX009 (ip), vehicle: saline + alcohol",6 of 6
same,survivor count,"dose: 200.0 mg/kg/injection, schedule: Q01DX009 (ip), vehicle: saline + alcohol",0 of 6
CC(=O)Oc1c(Cl)c(Cl)c(C#N)c(Cl)c1C#N,survivor count,[2],0 of 6
CCN(CC)c1cccc(N)c1,survivor count,"dose: 200.0 mg/kg/injection, schedule: Q01DX009 (sc), vehicle: olive oil, sesame oil, peanut oil",0 of 6
CCCCCCCCCCC(O)CN1CCN(c2ccc(C)cc2)CC1 (stereo not given),T/C,"dose: 400.0 mg/kg/injection, schedule: Q04DX003 (ip), vehicle: saline sonified",130 % of control
same,survivor count,[5],6 of 6
Nc1ncnc2[nH]c(=O)[nH]c12,survivor count,"dose: 50.0 mg/kg/injection, schedule: Q01DX009 (ip), vehicle: saline with Tween-80",4 of 6
same,survivor count,[1],3 of 6
same,survivor count,[6],4 of 6
same,survivor count,[2],3 of 6
same,survivor count,[7],3 of 6
COC(=O)C1(C)CCC(c2ccc(OC)cc2)CC1=O (stereo not given),survivor count,[4],6 of 6
O=NN1CCCNC1=O,survivor count,"dose: 150.0 mg/kg/injection, schedule: Q04DX003 (ip), vehicle: saline with Tween-80",5 of 6
CCC1CN1P(=O)(Oc1ccc2ccccc2c1)N1CC1CC (stereo not given),T/C,[6],127 % of control
O=C1c2c(Cl)c(Cl)c(Cl)c(Cl)c2C(=O)N1c1ccccc1-c1ccccc1,survivor count,"dose: 87.5 mg/kg/injection, schedule: Q01DX009 (ip), vehicle: saline with Tween-80",5 of 7
CS(=O)(=O)OCCCl,survivor count,"dose: 150.0 mg/kg/injection, schedule: Q01DX010 (ip), vehicle: saline",5 of 6 and 6 of 6
COc1ccc(C(=NO)c2ccc(OC)cc2)cc1,T/C,[8],127 % of control
CCOC(=O)CCSc1ccccc1,survivor count,[6],3 of 6
CCCC(Sc1nc(N)nc2nc[nH]c12)C(=O)O (stereo not given),T/C,[9],140 % of control
CCOc1ccc(N2CC(=O)N3CCCN3C(=O)C2)cc1,survivor count,"dose: 50.0 mg/kg/injection, schedule: Q01DX005 (ip), vehicle: saline with Tween-80",4 of 5
same,survivor count,"dose: 200.0 mg/kg/injection, schedule: Q01DX005 (ip), vehicle: saline with Tween-80",5 of 5
CN1C(=O)c2ccccc2CC12c1ccccc1C(=O)N2C (stereo not given),survivor count,"dose: 100.0 mg/kg/injection, schedule: Q01DX005 (ip), vehicle: saline with Tween-80",5 of 5
CCOc1ccc(Nc2c3ccccc3nc3ccccc23)cc1,T/C,"dose: 3.12 mg/kg/injection, schedule: Q01DX009 (ip), vehicle: Klucel (hydroxypropylcellulose) (HPC)",137 % of control
same,T/C,"dose: 6.12 mg/kg/injection, schedule: Q01DX009 (ip), vehicle: Klucel (hydroxypropylcellulose) (HPC)",149 % of control [5 of 6 alive]
same,T/C,"dose: 12.5 mg/kg/injection, schedule: Q01DX009 (ip), vehicle: Klucel (hydroxypropylcellulose) (HPC)",137 % of control
same,T/C,"dose: 25.0 mg/kg/injection, schedule: Q01DX009 (ip), vehicle: Klucel (hydroxypropylcellulose) (HPC)",126 and 149 % of control
same,T/C,"dose: 50.0 mg/kg/injection, schedule: Q01DX009 (ip), vehicle: Klucel (hydroxypropylcellulose) (HPC)",146 % of control
same,survivor count,"dose: 100.0 mg/kg/injection, schedule: Q01DX009 (ip), vehicle: Klucel (hydroxypropylcellulose) (HPC)",6 of 6
same,survivor count,[3],1 of 6
O=C1Cc2ccccc21,survivor count,"dose: 200.0 mg/kg/injection, schedule: Q04DX003 (ip), vehicle: saline with Tween-80",0 of 6
same,survivor count,[7],6 of 6
same,T/C,[5],"108, 110, 113, 145 % of control"
COc1cc2c(cc1OC)C(CCN1C(=O)c3ccccc3C1=O)=NCC2,survivor count,"dose: 50.0 mg/kg/injection, schedule: Q01DX009 (ip), vehicle: saline",6 of 6
same,survivor count,"dose: 100.0 mg/kg/injection, schedule: Q04DX003 (ip), vehicle: saline",2 of 6
CCOc1cc(/C=N\Nc2nncn2N)c(C)cc1N(CCCl)CCCl,survivor count,"dose: 100.0 mg/kg/injection, schedule: Q01DX009 (ip), vehicle: saline sonified",5 of 6
same,survivor count,[9],0 of 6
same,survivor count,"dose: 400.0 mg/kg/injection, schedule: Q01DX009 (ip), vehicle: saline sonified",0 of 6
c1csc(C[N+]23CN4CN(CN(C4)C2)C3)c1,T/C,"dose: 200.0 mg/kg/injection, schedule: Q01DX009 (ip), vehicle: saline",148 % of control
same,survivor count,[8],3 of 6
CC(C)CNC(=S)N/N=C\C=N/NC(=S)NCC(C)C,survivor count,"dose: 300.0 mg/kg/injection, schedule: Q01DX009 (ip), vehicle: saline with Tween-80",7 of 7
CCN(CC)CCCC(C)NC(=O)c1cc(=O)[nH]c(=O)[nH]1 (stereo not given),survivor count,"dose: 200.0 mg/kg/injection, schedule: Q01DX009 (ip), vehicle: water",4 of 6
same,survivor count,"dose: 400.0 mg/kg/injection, schedule: Q04DX003 (ip), vehicle: water",1 of 6
CCC[CH2][Sn]([CH2]CCC)([O]S(=O)c1ccccc1)[O]S(=O)c1ccccc1 (stereo not given),survivor count,"dose: 100.0 mg/kg/injection, schedule: Q01DX001 (ip), vehicle: saline with Tween-80",0 of 6
same,survivor count,"dose: 200.0 mg/kg/injection, schedule: Q01DX001 (ip), vehicle: saline with Tween-80",0 of 6
same,survivor count,"dose: 400.0 mg/kg/injection, schedule: Q01DX001 (ip), vehicle: saline with Tween-80",0 of 6
